In doi:10.1101/2020.01.23.917252 one finds binding data, which are given here for one molecule.

By UniProt entry, the sequences of proteins in these tests, tags left out. Where a name states a change or a piece, a line headed by the entry shows the natural chain unless it says otherwise.
UniProt Q15286: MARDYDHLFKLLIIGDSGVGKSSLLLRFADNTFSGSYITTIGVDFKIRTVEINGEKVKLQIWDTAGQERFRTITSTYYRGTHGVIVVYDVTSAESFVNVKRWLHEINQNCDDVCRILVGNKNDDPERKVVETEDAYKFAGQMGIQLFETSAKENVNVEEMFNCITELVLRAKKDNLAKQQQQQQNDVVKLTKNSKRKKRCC
UniProt P61026: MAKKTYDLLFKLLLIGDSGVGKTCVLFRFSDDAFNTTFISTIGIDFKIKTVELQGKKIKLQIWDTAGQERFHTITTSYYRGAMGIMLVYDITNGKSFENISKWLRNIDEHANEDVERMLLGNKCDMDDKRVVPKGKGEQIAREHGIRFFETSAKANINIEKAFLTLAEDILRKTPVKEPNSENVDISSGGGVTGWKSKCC
UniProt Q5S007: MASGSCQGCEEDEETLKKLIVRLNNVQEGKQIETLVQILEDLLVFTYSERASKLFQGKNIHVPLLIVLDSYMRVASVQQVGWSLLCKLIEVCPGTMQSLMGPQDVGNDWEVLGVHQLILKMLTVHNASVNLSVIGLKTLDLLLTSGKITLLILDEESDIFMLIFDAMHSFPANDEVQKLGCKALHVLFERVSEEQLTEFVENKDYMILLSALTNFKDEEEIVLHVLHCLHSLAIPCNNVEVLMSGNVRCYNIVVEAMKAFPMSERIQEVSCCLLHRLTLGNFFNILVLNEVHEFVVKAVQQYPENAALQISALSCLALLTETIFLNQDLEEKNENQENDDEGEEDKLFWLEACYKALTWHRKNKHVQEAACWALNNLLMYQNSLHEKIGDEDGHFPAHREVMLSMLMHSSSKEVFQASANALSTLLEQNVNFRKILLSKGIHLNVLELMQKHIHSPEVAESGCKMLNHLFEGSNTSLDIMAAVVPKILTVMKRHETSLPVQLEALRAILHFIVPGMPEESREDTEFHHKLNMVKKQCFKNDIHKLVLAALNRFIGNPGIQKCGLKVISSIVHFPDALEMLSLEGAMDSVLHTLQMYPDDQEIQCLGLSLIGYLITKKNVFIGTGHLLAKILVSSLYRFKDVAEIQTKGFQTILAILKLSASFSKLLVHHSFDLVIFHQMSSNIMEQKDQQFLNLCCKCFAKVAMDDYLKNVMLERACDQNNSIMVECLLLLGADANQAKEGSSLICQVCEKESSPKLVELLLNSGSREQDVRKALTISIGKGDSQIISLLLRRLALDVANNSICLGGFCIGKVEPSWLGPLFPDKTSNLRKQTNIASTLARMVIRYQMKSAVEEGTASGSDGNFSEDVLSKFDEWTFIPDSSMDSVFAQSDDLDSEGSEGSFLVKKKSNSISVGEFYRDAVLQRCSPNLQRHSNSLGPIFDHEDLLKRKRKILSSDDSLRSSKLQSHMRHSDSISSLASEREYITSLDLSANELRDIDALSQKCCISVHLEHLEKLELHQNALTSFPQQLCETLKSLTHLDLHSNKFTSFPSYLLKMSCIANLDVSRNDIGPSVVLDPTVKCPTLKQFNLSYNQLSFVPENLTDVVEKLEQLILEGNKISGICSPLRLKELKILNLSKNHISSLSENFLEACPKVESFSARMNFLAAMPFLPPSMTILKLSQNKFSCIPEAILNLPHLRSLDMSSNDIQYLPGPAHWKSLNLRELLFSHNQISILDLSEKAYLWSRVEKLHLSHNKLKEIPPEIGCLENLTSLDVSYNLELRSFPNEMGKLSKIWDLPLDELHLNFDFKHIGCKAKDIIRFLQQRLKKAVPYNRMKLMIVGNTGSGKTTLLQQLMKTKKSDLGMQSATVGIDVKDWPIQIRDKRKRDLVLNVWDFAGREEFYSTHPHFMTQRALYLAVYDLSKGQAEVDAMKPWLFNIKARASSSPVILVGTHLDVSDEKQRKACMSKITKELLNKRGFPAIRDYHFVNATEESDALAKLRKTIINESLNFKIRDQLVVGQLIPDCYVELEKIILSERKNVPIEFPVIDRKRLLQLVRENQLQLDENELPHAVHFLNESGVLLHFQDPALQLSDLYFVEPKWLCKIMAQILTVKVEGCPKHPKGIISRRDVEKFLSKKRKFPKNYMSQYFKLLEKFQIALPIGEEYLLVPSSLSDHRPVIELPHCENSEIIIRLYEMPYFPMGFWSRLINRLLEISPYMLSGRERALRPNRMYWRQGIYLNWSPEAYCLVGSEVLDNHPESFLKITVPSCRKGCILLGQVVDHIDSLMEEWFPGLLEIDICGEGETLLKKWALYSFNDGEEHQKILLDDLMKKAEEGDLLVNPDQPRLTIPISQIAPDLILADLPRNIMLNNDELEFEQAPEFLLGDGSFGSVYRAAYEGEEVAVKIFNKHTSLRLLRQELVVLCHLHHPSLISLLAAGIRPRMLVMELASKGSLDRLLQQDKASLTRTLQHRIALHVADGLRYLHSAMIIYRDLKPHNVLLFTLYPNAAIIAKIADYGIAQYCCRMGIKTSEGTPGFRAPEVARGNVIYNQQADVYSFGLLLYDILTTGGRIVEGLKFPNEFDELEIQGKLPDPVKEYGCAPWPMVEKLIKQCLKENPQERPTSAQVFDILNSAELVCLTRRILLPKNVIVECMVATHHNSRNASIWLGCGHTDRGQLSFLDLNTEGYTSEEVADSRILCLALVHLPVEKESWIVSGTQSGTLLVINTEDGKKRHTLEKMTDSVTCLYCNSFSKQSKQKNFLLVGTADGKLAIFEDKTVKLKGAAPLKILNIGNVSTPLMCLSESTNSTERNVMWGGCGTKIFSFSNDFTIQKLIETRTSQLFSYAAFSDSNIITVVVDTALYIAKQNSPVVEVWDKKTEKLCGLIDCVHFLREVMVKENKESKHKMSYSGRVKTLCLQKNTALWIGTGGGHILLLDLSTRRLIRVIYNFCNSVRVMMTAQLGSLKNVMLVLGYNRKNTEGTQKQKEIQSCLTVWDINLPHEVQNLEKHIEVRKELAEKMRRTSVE

Assay in all cases: co-IP
Experiment [1] deals with 2xmyc-RAB35-WT (UniProt Q15286).
Experiment [2] addresses 2xmyc-RAB10-WT (UniProt P61026).
The target in experiment [3] is 3xflag-LRRK2 (UniProt Q5S007).
Experiment [4] concerns the target 2xmyc-RAB10-T73A (UniProt P61026).

Results are given in words; binding and its absence hold for the method and conditions named. In cells and extracts the contact can be indirect. Some entries that bind do so weakly or less than the wild type.

B1: JIP4 (C-Jun-amino-terminal kinase-interacting protein 4) (protein, UniProt O60271 1-1321)
chain: MELEDGVVYQEEPGGSGAVMSERVSGLAGSIYREFERLIGRYDEEVVKELMPLVVAVLENLDSVFAQDQEHQVELELLRDDNEQLITQYEREKALRKHAEEKFIEFEDSQEQEKKDLQTRVESLESQTRQLELKAKNYADQISRLEEREAELKKEYNALHQRHTEMIHNYMEHLERTKLHQLSGSDQLESTAHSRIRKERPISLGIFPLPAGDGLLTPDAQKGGETPGSEQWKFQELSQPRSHTSLKVSNSPEPQKAVEQEDELSDVSQGGSKATTPASTANSDVATIPTDTPLKEENEGFVKVTDAPNKSEISKHIEVQVAQETRNVSTGSAENEEKSEVQAIIESTPELDMDKDLSGYKGSSTPTKGIENKAFDRNTESLFEELSSAGSGLIGDVDEGADLLGMGREVENLILENTQLLETKNALNIVKNDLIAKVDELTCEKDVLQGELEAVKQAKLKLEEKNRELEEELRKARAEAEDARQKAKDDDDSDIPTAQRKRFTRVEMARVLMERNQYKERLMELQEAVRWTEMIRASRENPAMQEKKRSSIWQFFSRLFSSSSNTTKKPEPPVNLKYNAPTSHVTPSVKKRSSTLSQLPGDKSKAFDFLSEETEASLASRREQKREQYRQVKAHVQKEDGRVQAFGWSLPQKYKQVTNGQGENKMKNLPVPVYLRPLDEKDTSMKLWCAVGVNLSGGKTRDGGSVVGASVFYKDVAGLDTEGSKQRSASQSSLDKLDQELKEQQKELKNQEELSSLVWICTSTHSATKVLIIDAVQPGNILDSFTVCNSHVLCIASVPGARETDYPAGEDLSESGQVDKASLCGSMTSNSSAETDSLLGGITVVGCSAEGVTGAATSPSTNGASPVMDKPPEMEAENSEVDENVPTAEEATEATEGNAGSAEDTVDISQTGVYTEHVFTDPLGVQIPEDLSPVYQSSNDSDAYKDQISVLPNEQDLVREEAQKMSSLLPTMWLGAQNGCLYVHSSVAQWRKCLHSIKLKDSILSIVHVKGIVLVALADGTLAIFHRGVDGQWDLSNYHLLDLGRPHHSIRCMTVVHDKVWCGYRNKIYVVQPKAMKIEKSFDAHPRKESQVRQLAWVGDGVWVSIRLDSTLRLYHAHTYQHLQDVDIEPYVSKMLGTGKLGFSFVRITALMVSCNRLWVGTGNGVIISIPLTETNKTSGVPGNRPGSVIRVYGDENSDKVTPGTFIPYCSMAHAQLCFHGHRDAVKFFVAVPGQVISPQSSSSGTDLTGDKAGPSAQEPGSQTPLKSMLVISGGEGYIDFRMGDEGGESELLGEDLPLEPSVTKAERSHLIVWQVMYGNE
Regarding B1, the binding result in experiment [1] was “no binding”; in experiment [2], “binds”; in experiment [3] it was “binds”; in experiment [4], “no binding”.
